Some entries share one result that the patent states for a list of compounds.
Tested on: Fusarium nivale (var. majus)
Test: Fusarium nivale (var. majus)-test (wheat)/preventive
Settings: dose of 250 ppm and 500 ppm of active ingredient

| SMILES | protection |
| --- | --- |
| Cn1nc(C(F)F)c(C(=O)Nc2cccc3c2C2CCC3C2=C(Cl)Cl)c1Cl (centres unmarked) [Example 71] | at least 94% |
| Cn1nc(C(F)F)c(C(=O)Nc2cccc3c2C2CCC3C2=C(Cl)Cl)c1F (centres unmarked) [Example 72] | at least 94% |

— patent US9375004B2 (Bayer Intellectual Property GmbH, priority 2010, dated 2016)
